Laboratory results: PubChem BioAssay AID1508600 (Functional Genomics Laboratory (NCATS/FGL), 2020)
About 3,700 (7%) of roughly 53,000 sequences were called active.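 How the source made its calls: active means gene knockdowns whose robust z-score for IL-1 alpha signal is at least 2 or at most -2, so actives lie on both sides; inactive means the rest.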 The list shows a part of the results.

Assay: Components of the Cytosolic LPS Sensing Pathway: Gene Identification via Genome-wide siRNA Screen;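 further: robust z of the log signal after scaling to non-targeting control siRNA wells of the plate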
Conditions: RAW264.7 macrophages, IL-1a HTRF, actives lie on both sides, screened at 100 nM (by protocol), cells primed 5 h with Pam3CSK4 first
Summary of the method: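 Cells (RAW264.7, 1×10^4 per well) were transfected with siRNA at 100 nM and cultured 48h at 37 degrees C. Pam3CSK4 was added for 5 hours; LipidA transfection followed for 24 hour. IL-1a was then measured by HTRF.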

Row | Sequence | z-score
1 | GGAUCAGGAAGGAUUCGGATT against Zfp84 | inactive: -1.01
2 | GCAGGAUUCAUGUAAAUAGTT against Pacs2 | inactive: -1.79
3 | CCCAGGUGAUUCUGAUAUUTT against Rpl30 | inactive: 0.534
4 | GGGUGAUGUGUUUAUUAAGTT against Crp | inactive: 0.234
5 | GCAAUGGCAACAGAGAGGATT against Cbarp | inactive: 0.288
6 | GGCAGUGCCAAUGAACAAGTT against Elob | inactive: 0.591
7 | GGUAGAAAGUAUGGCUCCATT against Ppp1r9a | inactive: -0.392
8 | CCUUUGCUCCACCUACACATT against Zcwpw1 | inactive: 0.892
9 | GGACAAGAGGUACACAAACTT against Eif3d | active: 2.83
10 | AAGGACGAUCCUGAUUUCATT against Gm5431 | inactive: 0.828
11 | GGUUGGUCCUGAUGAAGAATT against Tnnt2 | inactive: -0.299
12 | GGAGAUGAUCGACGAAGUATT against Tnnc1 | inactive: 0.914
13 | CCCUGGUCGUCAUUUUCAATT against Morc2b | inactive: 1.54
14 | GGAAGGCUCAGAGAAAUAATT against Ssr4 | inactive: -0.173
15 | GCUUUUACGGGAGAAAACUTT against Xbp1 | inactive: -0.395
16 | ACACUGGAGUGAACAACGUTT against Vmo1 | inactive: 1.48
17 | CCAGAUUUGAGCGAAACCUTT against Myo15 | inactive: -0.287
18 | GGACAAGAUAGGAGGAGACTT against Abhd16a | inactive: -0.776
19 | GGCCUGAAUGACACCUUUATT against Anp32e | inactive: 0.211
20 | GGUUGCUACUUUUGGCAGGTT against Dusp7 | inactive: -0.535
21 | GGCAGAACGAACAGAGUUUTT against Nipsnap3b | inactive: 0.218
22 | GCUACUCUCGCCUGUUACATT against Dcaf12 | inactive: 0.0053

Two entries drawn at random from the list so far, as already listed:
Row | Sequence | z-score
17 | CCAGAUUUGAGCGAAACCUTT against Myo15 | inactive: -0.287
18 | GGACAAGAUAGGAGGAGACTT against Abhd16a | inactive: -0.776

Following part.

Row | Sequence | z-score
23 | GGCCAAACUGGAUUACUUATT against Tmprss11c | inactive: 1.26
24 | GCUGUAAUGACCAGUGUUUTT against Gpam | inactive: 0.887
25 | CCCAGUGAAGCAUUUUUUATT against Rpp30 | inactive: -1.63
26 | GGGACAAAGUACCUCUCCATT against Proser3 | inactive: -1.45
27 | GGCAUUACAUUUCAAUGAATT against Serpinb12 | inactive: -0.71
28 | GCUUUAAUUCACCAUUAGGTT against Pax9 | inactive: 0.658
29 | GCUGAUGGUCAGAGGAAGATT against Vmn1r177 | inactive: 0.688
30 | GGGCAGUUUUACAAAUGUUTT against Fbxw8 | inactive: 0.985
31 | GGUGUUUUCCAACAUCCUCTT against Ccrl2 | active: 3.06
32 | GGUUUCAAGUGAUGAAUAGTT against Ntf5 | inactive: 0.433
33 | GCCACAUAAGGUUGUUCCCTT against Gamt | active: 2.9
34 | GGAGGCUAUUACUGUUUAUTT against Fam107b | inactive: 0.601
35 | GUUCUUCUCUGUUGGUGCUTT against Vmn1r24 | active: -2.12
36 | GCACUGUGAGUGGAUACUUTT against Slc5a3 | inactive: 0.13
37 | GGCAAGAUCACCUUCUGCATT against Psmd4 | inactive: 0.152
38 | GAUGCACUUCGAAUCAGGGTT against Uchl3 | inactive: -0.082
39 | CCUUCCCUUAAAUGGAACCTT against Slc9a1 | inactive: 1.63
40 | GGACACUAUGACGGAAGUATT against Apoe | inactive: -1.13
41 | GGGAAAAUGCCUAUCGAUUTT against Meis1 | inactive: 0.834
42 | GGUCACUGUUUCCCUAGACTT against Prss33 | inactive: -1.57
43 | AUAAAGAUGUCAGUGAUGCTT against Olfr951 | inactive: -1.43
44 | GGUUAAAAUGCCAUAACAATT against Ksr1 | inactive: -1.26

Row | Sequence | z-score
45 | GGACAAAAGAUUCUUCAUCTT against Map1b | active: 2.93
46 | GGAAAAUUUAUGCAGUGGATT against Carm1 | inactive: -0.264
47 | GAUGCCCAAUGUGCAAAUGTT against Defa-rs12 | inactive: 1.06
48 | CCAGAUGCUAAAUCACUACTT against Ttll8 | inactive: -0.127
49 | GGUCUUUUUUCCUUUGUUCTT against Ogg1 | inactive: 0.187
50 | GGAUCGUGAUCCAUCAGAGTT against Pcgf3 | inactive: -0.152
51 | GCAUCUACCACACAAUGGCTT against Wdfy1 | inactive: 0.787
52 | GCUCAAAACGCACGUGAAGTT against Get1 | inactive: 0.17
53 | GGGAAAUGAACCUCUCUGATT against Pbld2 | inactive: -0.916
54 | GCUGCCUCUAUUUCAGUUCTT against Fbxo27 | inactive: -0.253
55 | GGUCAUGUCCGAGUACAACTT against Stx1a | inactive: 1.21
56 | GGAAUAUUUUGCUUGUGUGTT against Dnmt3a | inactive: -0.925
57 | GGAAACUGCAUUCAAGCCATT against Apod | inactive: -0.191
58 | GCUCUCUGCACCAGAGUAUTT against Mapk15 | inactive: -0.993
59 | GCAAGUAGUUAGCUCAGGGTT against Gabpb1 | inactive: -0.752
60 | GGUGGUAAUAGACAAACACTT against Ctdnep1 | inactive: -0.749
61 | GUUCUCAAGUAUCCCAGGCTT against 1110006O24Rik | inactive: -0.661
62 | GCGAACCCAUCAGUGAAGUTT against Dpp10 | inactive: 1.6
63 | GGGUGAGAUAGGAAAGUGGTT against Rab43 | inactive: -0.111
64 | GGAAUUUGGAGCAAUUGGATT against Efcab14 | inactive: -0.0212
65 | GCUGGAUCAGCUAGCAAAATT against Cpa1 | inactive: 0.0912
66 | GGUUGAGAAGAAGAAUGGATT against Thap4 | inactive: -0.382

Quoted from above, nos. 61–64
Row | Sequence | z-score
61 | GUUCUCAAGUAUCCCAGGCTT against 1110006O24Rik | inactive: -0.661
62 | GCGAACCCAUCAGUGAAGUTT against Dpp10 | inactive: 1.6
63 | GGGUGAGAUAGGAAAGUGGTT against Rab43 | inactive: -0.111
64 | GGAAUUUGGAGCAAUUGGATT against Efcab14 | inactive: -0.0212

Further records follow:

Row | Sequence | z-score
67 | GGACUAUUUGGAAACCUCCTT against Olfr1366 | inactive: -0.304
68 | GGAAAUUGUUGUUUCCCGUTT against Sf3b3 | inactive: -1.45
69 | GGAAAAUACACAGAGAUAUTT against Stk3 | inactive: -0.389
70 | CGAAACCUCUAAGAAGAUATT against Pole | inactive: -0.264
71 | CGCCUUGCUAGUUUAAUGATT against Matr3 | inactive: 0.905
72 | GGAUAACCGUAUUAAUUUCTT against Gm2a | inactive: 0.709
73 | GCUCUAAGGAACAUGUAAATT against Recql | inactive: -0.122
74 | GGAAAUCAUAUAUGCAAAGTT against Dpp4 | inactive: -0.366
75 | GGCUGUCCAACAAGCAGAGTT against Plekhm3 | inactive: 0.163
76 | GGUAAUUUCUUACCAAGGATT against Gabpa | inactive: -0.912
77 | GGAUGUUGUUUGGGCUUUUTT against Olfr140 | inactive: 0.332
78 | CCUUUAGUGAGAUUAAGCATT against Hectd3 | inactive: 0.379
79 | GGAAAUCCUGGAAAACAAATT against Samm50 | inactive: -1.14
80 | GCAUUAAGGCACAAACAAATT against Myo1b | inactive: -0.246
81 | GCCAGCUAAAAUAGAAAAATT against Vldlr | inactive: -0.304
82 | GCCGGAUGUUCUUUGGCAATT against Mrto4 | inactive: 0.534
83 | GGUGGUGUAAUCAAAUGUATT against Chmp3 | inactive: 1.32
84 | CGAACUUCUUUAUCAGAACTT against Mrgpra4 | inactive: 1.02
85 | GGCACCCUUGAACUCUACUTT against 4930404N11Rik | inactive: 0.49
86 | GGAAGUUUAGAGCAUGCCATT against Tmem134 | inactive: -0.792
87 | GGAUCACCAUUGCUUGACUTT against Galt | inactive: 0.117
88 | CGACUUUCUUGUGGAGUGGTT against Nanos1 | inactive: -0.207

Row | Sequence | z-score
89 | CCGUGUUAGAGUUUUCGACTT against Top3b | inactive: 1.2
90 | GGACUCAGCAAAGAAAGAGTT against Eea1 | inactive: -1.91
91 | GCUGUACAAAACAUAAGAATT against Bcl6 | inactive: 1.11
92 | CCCAGAAACGUGACACUCUTT against Ifnlr1 | inactive: -1.95
93 | GGGAAAAGGGCUUAAAUGCTT against Tmem198 | inactive: 0.153
94 | GCCACUUGGAAGAUCUAUGTT against Kcnq1 | inactive: -0.474
95 | GCAUAUGUCUGUGGAAUGUTT against Olfr1505 | inactive: -0.111
96 | CCCUCCUAGAUACAUUUUGTT against Ifna16 | inactive: 0.00677
97 | GGAGAAGUACAAUAAUGACTT against Cacnb1 | inactive: -0.297
98 | GGACUGUCAGUACUGUCAATT against Agr3 | inactive: 0.445
99 | CGAAUGACUCGUUUGUUAATT against Samt3 | inactive: 1.22
100 | GCAUCAAGCAGAAAAGAGGTT against Gm5458 | inactive: -1.16
101 | GCUAUUGGAGAUAUAAUGGTT against Ace | inactive: 1.58
102 | GGAGGAAUACAAAUUCAAGTT against Vamp5 | inactive: 1.37
103 | GGACAGCACAAUUACCUUUTT against Nr3c1 | inactive: -0.299
104 | GCUCUGUCAGUGAAUGUGATT against Pkd1l2 | inactive: -0.516
105 | GGUUGUACUCUACACCAAGTT against Crtac1 | inactive: -0.705
106 | GCAACAAACUGAGCAAAAATT against Exph5 | inactive: -1.64
107 | GGCAGCAAAAAGGUGACGCTT against Cdk5r2 | inactive: -0.522
